Measured values from the supplement of paper PMC5949888.
± gives the standard deviation of the averaged measurements. Most values lie at the floor of the assay. Slopes are relative: functional sequences can read slightly below zero.

Test system: Saccharomyces cerevisiae PS128 hsf1 delta, HSF1(1-493) fusion
Test: growth estimate (transactivation domain function in HSF1 fusion, heat-shock survival) (a.u. (slope of normalised read count over time)); higher = stronger growth at 37°C, i.e. more transactivation activity
Details: library: random library

Substance	growth estimate
PRFRIMGGGAAVKGHVTWWP	< -0.25
PRGARGRSVYPQNQPMVRGS	< -0.25
PRGEYVWPRAEDETGREGVR	< -0.25
PRHTLCKIGVNPLGALYEVG	-0.246
PRHVIYEIHGSAKPASACQR	< -0.25
PRIGSPRHTNVRRSERSDAR	< -0.25
PRIRGQG	< -0.25
PRKLCE	< -0.25
PRKRTGKPSMTR	< -0.25
PRLATA	< -0.25
PRLDRCNDTVLGLHTTVSGR	< -0.25
PRMHGKSGGCK	< -0.25
PRMSFRPYLGA	< -0.25
PRPKHAVVS	< -0.25
PRPL	< -0.25
PRPTVGNMYGSFRSRMIGAF	< -0.25
PRQ	-0.116
PRQSCSAASDYLGRSRTKGG	< -0.25
PRRAHKIATVTFGSDALSPA	< -0.25
PRRGAPVEIPWPVR	< -0.25
PRRIAH	< -0.25
PRRPSALKDYRCKSLHFSVD	< -0.25
PRRSRYFNTRFGSSEQDLTH	< -0.25
PRS	< -0.25
PRSDPLPSGQVRVCRYTTAE	< -0.25

Substance	growth estimate
PRSPGWLGLR	< -0.25
PRSRVG	< -0.25
PRSVASGVSQGWGHRVESRK	< -0.25
PRTGHCQLGLSVWARTIGRR	< -0.25
PRTNVVPKPRNCLGADL	< -0.25
PRTTIPTVHGGLELRTQTNA	< -0.25
PRTYRGLGLRD	< -0.25
PRVDTMPRSSDKVMGQAGSM	< -0.25
PRVHLSHRGSA	< -0.25
PRVLYHSFSSGITVILGTGL	< -0.25
PRVPYGS	< -0.25
PRVRLFG	< -0.25
PRVYHKGSIQGCWSQGIRPD	< -0.25
PRVYV	< -0.25
PRWAFCVDRLMSVLEFVAAI	< -0.25
PRWTVPHHP	< -0.25
PSA	< -0.25
PSALKYSGAI	< -0.25
PSASDGVESGVPLTASLGSP	< -0.25
PSCTGILPAVRPLRPARSPL	< -0.25
PSCVFISAFRFTGSCSSLPE	< -0.25
PSDARSKLLVRIHTKTAPRQ	< -0.25
PSDERGSGLLSSRIRG	< -0.25
PSDSHRFAVVGQHAYNWSCG	< -0.25
PSFL	< -0.25

Shown with bars between the fields: entries from further up.
Substance | growth estimate
PRSVASGVSQGWGHRVESRK | < -0.25
PRTGHCQLGLSVWARTIGRR | < -0.25
PRTNVVPKPRNCLGADL | < -0.25
PRTTIPTVHGGLELRTQTNA | < -0.25

Additional records

Substance	growth estimate
PSGAGLSGCLKFTLSPGKRQ	-0.231
PSGFQSAEEPLGVTRNQRSS	< -0.25
PSGIRSCS	< -0.25
PSGLSVSPILGRNPNRKGNP	-0.245
PSGTCRIADEVT	-0.224
PSGVA	< -0.25
PSGVLSTSSLLARDR	-0.217
PSHIYWVVSPVGGVLILQQS	< -0.25
PSHLTLSLRAVAWLLAVMRV	< -0.25
PSKGLG	< -0.25
PSKSSLGKSGAHRVYLDTRS	< -0.25
PSLP	< -0.25
PSLSSSCV	< -0.25
PSLV	< -0.25
PSLYDVHYT	< -0.25
PSPEEMNVPY	< -0.25
PSPHGHGAKVNVRHNACLSP	< -0.25
PSPRVHRNIFSRAPESPTPS	< -0.25
PSRA	< -0.25
PSREP	< -0.25
PSRGTASLTLVRSEPT	< -0.25
PSRIRSGSTSTGAADLRSGR	< -0.25
PSRSAAWDQRLIGDIGIPAH	< -0.25
PSRVRKGPDRVLSQVAVTLS	< -0.25
PSS	< -0.25

Substance	growth estimate
PSSCIVPGRNFIKAEFRNAV	< -0.25
PSSIRDPDSGWLHPLTGKPS	< -0.25
PSSTCR	< -0.25
PSTPLRLQAPDVEVMF	< -0.25
PSTPPFARTMFHRNYRD	< -0.25
PSTRAGHG	< -0.25
PSTRWLSGSALMCEHGAAQG	< -0.25
PSVIRALPNL	< -0.25
PSVRLDISAIKTLPALHARP	< -0.25
PSVSCQSALTIKISS	< -0.25
PSVSIRFQWLRGGCRVRPGP	< -0.25
PSWLRSPPDGEGRTRGQTLC	< -0.25
PSY	0.263
PSYSHRALGQGRATPRRVAR	< -0.25
PTATRGNAGTNEG	< -0.25
PTAV	< -0.25
PTAVFRVN	< -0.25
PTCFHTSTGISTGIDYGNCS	< -0.25
PTDRALL	< -0.25
PTEATYARLFHINTRSGWSL	1.4
PTFTLESS	< -0.25
PTG	< -0.25
PTGSTYTR	< -0.25
PTGVDFWELW	< -0.25
PTIWGGVQSRFLYLSDSRRQ	< -0.25

Copied from the list.
Under growth estimate, PSVSIRFQWLRGGCRVRPGP is listed with < -0.25
Under growth estimate, PSGTCRIADEVT is listed with -0.224

(list continues)

Substance	growth estimate
PTLLTI	< -0.25
PTLQRGSARVDCVNAL	< -0.25
PTLSVCKVPSQIPTCPASLV	< -0.25
PTLTGVPNSRYKHTELPIAS	< -0.25
PTPYTVQYVTMQLRYAFSLP	< -0.25
PTQRGFSSQG	< -0.25
PTQSESSAPRVLPGPGTQGP	< -0.25
PTRKPNALVGLGLRCEETSS	< -0.25
PTRLERR	< -0.25
PTRNHQGWHYVAGSVIGS	< -0.25
PTSEQTC	< -0.25
PTSGSPHCIHA	< -0.25
PTTEV	< -0.25
PTTTRVGVVCCPPKGE	< -0.25
PTVEQ	< -0.25
PTVNGHGTRGGLHYGDIGGS	< -0.25
PTVSTGV	< -0.25
PTWVCMCKAIHMNTHRELAV	< -0.25
PTYASNIS	< -0.25
PVCGGSDTVWVEGKELPATS	< -0.25
PVCGKYPTTSGIEHPTGVVS	< -0.25
PVDIGNGRLIEKGACI	< -0.25
PVEI	< -0.25
PVF	< -0.25
PVG	< -0.25

Substance	growth estimate
PVGAKLELAYPTEMRSALGS	< -0.25
PVGESSARDVGLAAQPITIV	< -0.25
PVGGNRGR	< -0.25
PVGKDSDPPGAADLRHNGSY	< -0.25
PVGVH	< -0.25
PVIP	-0.21
PVIRGLFQVGRQVAVPVRNR	< -0.25
PVKGHGCPDGLGSKLWVYPA	< -0.25
PVL	-0.248 ± 0.0034
PVLDPTSAHENKRASAQTGS	< -0.25
PVLITSENVFPPYTFPTCAD	-0.241
PVLRELSLRITRPCPLSLRR	< -0.25
PVLRSSMLTIKRPHMWWRPG	< -0.25
PVLTGIGTVRPPALYVAAQM	< -0.25
PVM	< -0.25
PVNPLGTGPLN	< -0.25
PVRGLGGVASVPF	< -0.25
PVRPG	< -0.25
PVRSTAASKWGP	< -0.25
PVRTTKDLAKSAKQLFVIRE	< -0.25
PVRVPLPGFHPQGVVCTYAP	-0.196
PVRYSGASSGAIPRKAWKRL	< -0.25
PVSEYCRTPEGPRPPAYRRQ	< -0.25
PVSTLLGRGFGPLFERRLGS	< -0.25
PVTQWITTQADECLLARPLW	< -0.25

Substance	growth estimate
PVTSP	< -0.25
PVVASEGARGSLRSQWGMTL	< -0.25
PVVAWGQSYHRRYGLLSVGW	< -0.25
PVVCFTRLMYAPVNRGKLVH	< -0.25
PVVCSNSFSTEADEFPGVT	< -0.25
PVVRCITEGLRGPHIGVARA	< -0.25
PVVRPRQMWSGRLYGPATRY	< -0.25
PVWITSPYGIRSGIGGAL	< -0.25
PWDQSYQIHLWRSVQGEPSP	< -0.25
PWGSHMFSNIGLSRAIGA	-0.243
PWGV	< -0.25
PWKQ	< -0.25
PWLIDLLESSRDYVEK	< -0.25
PWLVTKRWTCILIFAVVSQG	< -0.25
PWMALGVRAQEWSIFRDYQM	< -0.25
PWNGAIGCYVPGAVTRGGSA	-0.22
PWPLAI	< -0.25
PWPVPPSKRDDVRGPRGPRD	< -0.25
PWSATILLPQKWRGAPEWLR	< -0.25
PWSVRRLAPVTTHGFLGIVS	< -0.25
PWVQWSGDPQSSLGKNFLTG	< -0.25
PYAKRATNGAKDLFC	< -0.25
PYAQNLTPPSPVQGLRTIIS	< -0.25
PYGRIHSYITPGGGLWPVRR	< -0.25
PYGWTELSFLVVW	< -0.25

Substance	growth estimate
PYILDDDGVIPPNTTGSCPV	< -0.25
PYINCSM	< -0.25
PYLCLVSRDRTCNWLSYLSV	< -0.25
PYLQAGNRAFRPLHEVHMQS	< -0.25
PYMSMSSSFVVGLRNTTLGP	< -0.25
PYMTGLEVQNRSTG	< -0.25
PYNMFMIERCNSA	< -0.25
PYPRCT	< -0.25
PYRHGAGDLRRQVVVTQFRS	< -0.25
PYSGDGKKTCTIRRPH	< -0.25
PYSIDVVPGITSQPPMKAPF	< -0.25
PYSQGETAWLTVLESLRQTQ	-0.182
PYSRDGGPNANSWPGSAGNA	< -0.25
PYTWVIRGLPPIGARIPDSV	< -0.25
PYYRRHVRIAGLIRNVRRGQ	-0.137
PYYYVIRTGSSALALVRPGC	< -0.25
QADRFRCQKTLDSMATCRRP	< -0.25
QAFGLDCAHGLPGDPGNMHH	< -0.25
QAGLIRRQAIVRAATLG	< -0.25
QAGPRRARSTGRQNSATRGF	< -0.25
QAHFLGRYDLMG	< -0.25
QAHQMGNQRDPVQSRGRRG	< -0.25
QAHRANVGCLLSKKRK	< -0.25
QALGVFR	< -0.25
